The source of these data is the supplement of paper PMC10849652.

Amino acid sequences for entries named in this document (tags omitted). A change or cut given only in a name is not applied to a line headed by its entry.
UniProt P07737, whole entry, looked up: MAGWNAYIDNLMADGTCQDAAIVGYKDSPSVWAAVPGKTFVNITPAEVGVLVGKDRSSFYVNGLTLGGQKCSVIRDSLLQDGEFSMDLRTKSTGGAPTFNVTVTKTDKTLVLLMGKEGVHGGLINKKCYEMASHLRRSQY
UniProt O14737: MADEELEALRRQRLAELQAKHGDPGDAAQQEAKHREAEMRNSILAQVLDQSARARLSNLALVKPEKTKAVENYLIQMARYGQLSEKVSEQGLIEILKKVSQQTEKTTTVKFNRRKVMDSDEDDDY
UniProt Q9Y5B6: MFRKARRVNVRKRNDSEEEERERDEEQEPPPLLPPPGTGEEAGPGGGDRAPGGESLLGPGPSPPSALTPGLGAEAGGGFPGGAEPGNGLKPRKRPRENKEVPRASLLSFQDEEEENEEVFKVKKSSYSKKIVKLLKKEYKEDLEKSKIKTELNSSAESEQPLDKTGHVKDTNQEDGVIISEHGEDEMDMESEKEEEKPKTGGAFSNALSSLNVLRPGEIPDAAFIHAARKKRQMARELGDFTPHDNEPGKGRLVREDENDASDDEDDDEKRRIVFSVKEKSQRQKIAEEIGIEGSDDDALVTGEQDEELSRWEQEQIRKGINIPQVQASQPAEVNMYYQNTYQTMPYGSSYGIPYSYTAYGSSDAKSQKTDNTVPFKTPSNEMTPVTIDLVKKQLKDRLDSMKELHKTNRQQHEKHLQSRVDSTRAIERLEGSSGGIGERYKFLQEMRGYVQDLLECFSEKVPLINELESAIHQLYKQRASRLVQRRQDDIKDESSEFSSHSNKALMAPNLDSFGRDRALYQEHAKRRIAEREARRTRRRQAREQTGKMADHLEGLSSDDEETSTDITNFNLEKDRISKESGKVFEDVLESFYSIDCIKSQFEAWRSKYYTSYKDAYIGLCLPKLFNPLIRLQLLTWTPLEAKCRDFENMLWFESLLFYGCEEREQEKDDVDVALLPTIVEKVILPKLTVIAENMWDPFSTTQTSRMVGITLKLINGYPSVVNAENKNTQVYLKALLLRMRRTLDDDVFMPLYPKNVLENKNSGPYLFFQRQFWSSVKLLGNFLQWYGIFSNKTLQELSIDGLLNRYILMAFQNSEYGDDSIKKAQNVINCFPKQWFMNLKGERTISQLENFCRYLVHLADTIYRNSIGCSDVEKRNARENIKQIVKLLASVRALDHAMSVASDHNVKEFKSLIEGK
UniProt Q460N5, whole entry, looked up: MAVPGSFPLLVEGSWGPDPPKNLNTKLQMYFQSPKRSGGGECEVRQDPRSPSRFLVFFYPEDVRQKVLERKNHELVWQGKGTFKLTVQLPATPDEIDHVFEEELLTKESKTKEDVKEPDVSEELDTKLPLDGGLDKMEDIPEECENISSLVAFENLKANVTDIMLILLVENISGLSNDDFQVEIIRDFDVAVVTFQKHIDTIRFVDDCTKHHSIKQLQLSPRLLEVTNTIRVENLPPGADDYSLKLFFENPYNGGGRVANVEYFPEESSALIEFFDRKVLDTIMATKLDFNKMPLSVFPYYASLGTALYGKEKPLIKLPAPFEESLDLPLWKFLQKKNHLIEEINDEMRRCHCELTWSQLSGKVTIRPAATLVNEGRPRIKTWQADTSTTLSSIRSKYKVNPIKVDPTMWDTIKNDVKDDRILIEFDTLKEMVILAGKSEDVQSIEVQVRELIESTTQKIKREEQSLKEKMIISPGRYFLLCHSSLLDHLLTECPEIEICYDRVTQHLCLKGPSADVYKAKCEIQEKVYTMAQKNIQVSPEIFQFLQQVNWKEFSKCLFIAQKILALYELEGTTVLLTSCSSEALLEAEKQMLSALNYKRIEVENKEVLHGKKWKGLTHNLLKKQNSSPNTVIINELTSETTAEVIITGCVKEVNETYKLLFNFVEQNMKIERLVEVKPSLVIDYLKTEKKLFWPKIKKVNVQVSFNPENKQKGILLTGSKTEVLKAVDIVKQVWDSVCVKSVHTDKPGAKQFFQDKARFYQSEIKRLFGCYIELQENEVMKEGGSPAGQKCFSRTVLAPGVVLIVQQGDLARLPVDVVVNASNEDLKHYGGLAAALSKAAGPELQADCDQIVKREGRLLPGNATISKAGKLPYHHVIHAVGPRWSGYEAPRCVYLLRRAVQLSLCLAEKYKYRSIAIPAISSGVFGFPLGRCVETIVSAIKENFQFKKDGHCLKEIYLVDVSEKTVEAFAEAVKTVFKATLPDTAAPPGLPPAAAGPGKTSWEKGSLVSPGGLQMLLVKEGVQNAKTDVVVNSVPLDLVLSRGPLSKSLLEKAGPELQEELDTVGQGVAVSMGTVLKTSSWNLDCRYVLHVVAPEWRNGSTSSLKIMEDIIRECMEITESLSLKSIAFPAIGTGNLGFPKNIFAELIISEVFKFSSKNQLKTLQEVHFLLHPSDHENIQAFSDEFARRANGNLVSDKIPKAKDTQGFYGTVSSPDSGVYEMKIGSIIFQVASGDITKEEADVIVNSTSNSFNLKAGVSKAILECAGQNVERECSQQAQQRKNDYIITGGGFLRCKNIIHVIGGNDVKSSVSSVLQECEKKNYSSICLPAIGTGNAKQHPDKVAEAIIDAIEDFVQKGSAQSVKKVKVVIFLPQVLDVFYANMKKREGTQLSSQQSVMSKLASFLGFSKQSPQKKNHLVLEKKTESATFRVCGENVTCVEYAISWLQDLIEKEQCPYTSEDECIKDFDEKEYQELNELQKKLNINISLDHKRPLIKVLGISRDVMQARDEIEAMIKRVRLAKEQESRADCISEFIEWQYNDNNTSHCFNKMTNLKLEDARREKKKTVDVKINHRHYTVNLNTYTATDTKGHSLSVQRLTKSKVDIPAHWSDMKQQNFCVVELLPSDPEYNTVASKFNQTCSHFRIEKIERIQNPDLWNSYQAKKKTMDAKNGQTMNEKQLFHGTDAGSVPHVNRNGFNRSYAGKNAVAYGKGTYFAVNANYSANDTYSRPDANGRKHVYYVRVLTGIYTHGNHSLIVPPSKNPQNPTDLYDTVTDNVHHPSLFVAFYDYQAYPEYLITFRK
UniProt P61457: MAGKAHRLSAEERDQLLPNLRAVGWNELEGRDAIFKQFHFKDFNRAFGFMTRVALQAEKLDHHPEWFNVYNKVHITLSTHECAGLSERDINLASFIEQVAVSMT
UniProt Q99471, whole entry, looked up: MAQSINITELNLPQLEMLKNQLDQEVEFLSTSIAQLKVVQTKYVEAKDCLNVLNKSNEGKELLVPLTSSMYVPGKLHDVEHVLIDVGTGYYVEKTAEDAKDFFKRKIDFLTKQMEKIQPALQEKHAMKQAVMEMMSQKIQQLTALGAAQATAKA
UniProt Q15366, whole entry, looked up: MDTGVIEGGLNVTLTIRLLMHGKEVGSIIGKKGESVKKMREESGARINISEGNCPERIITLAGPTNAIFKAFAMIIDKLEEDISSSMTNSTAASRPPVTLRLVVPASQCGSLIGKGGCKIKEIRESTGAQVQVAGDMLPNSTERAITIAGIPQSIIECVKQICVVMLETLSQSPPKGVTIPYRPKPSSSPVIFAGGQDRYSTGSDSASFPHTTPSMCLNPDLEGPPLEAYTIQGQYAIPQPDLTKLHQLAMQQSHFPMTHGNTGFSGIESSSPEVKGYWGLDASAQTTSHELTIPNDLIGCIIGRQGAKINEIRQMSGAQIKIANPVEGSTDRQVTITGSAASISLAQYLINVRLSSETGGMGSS
UniProt Q53EL6: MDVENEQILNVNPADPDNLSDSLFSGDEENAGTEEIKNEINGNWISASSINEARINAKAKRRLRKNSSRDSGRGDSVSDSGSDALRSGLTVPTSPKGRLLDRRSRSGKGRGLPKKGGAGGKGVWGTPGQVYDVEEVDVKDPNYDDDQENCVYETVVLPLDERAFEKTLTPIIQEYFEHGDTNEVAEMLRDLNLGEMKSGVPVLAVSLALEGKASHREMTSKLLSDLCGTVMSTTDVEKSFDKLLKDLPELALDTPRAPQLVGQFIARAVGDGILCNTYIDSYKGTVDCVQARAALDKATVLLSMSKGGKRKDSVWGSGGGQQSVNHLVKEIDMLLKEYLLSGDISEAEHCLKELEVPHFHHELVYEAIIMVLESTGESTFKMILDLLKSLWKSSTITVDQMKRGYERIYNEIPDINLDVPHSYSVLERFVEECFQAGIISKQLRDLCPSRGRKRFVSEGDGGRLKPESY
UniProt Q9BRX2, whole entry, looked up: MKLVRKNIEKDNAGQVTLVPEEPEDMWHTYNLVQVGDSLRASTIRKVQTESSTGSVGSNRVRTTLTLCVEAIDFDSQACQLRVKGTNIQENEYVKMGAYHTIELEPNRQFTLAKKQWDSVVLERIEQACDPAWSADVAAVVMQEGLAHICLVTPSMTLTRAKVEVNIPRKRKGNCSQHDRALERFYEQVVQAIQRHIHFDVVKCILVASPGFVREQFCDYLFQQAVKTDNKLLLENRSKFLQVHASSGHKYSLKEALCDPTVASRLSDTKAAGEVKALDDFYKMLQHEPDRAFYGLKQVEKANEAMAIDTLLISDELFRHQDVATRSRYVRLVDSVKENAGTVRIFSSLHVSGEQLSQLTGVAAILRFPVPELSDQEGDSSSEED
UniProt Q15121, whole entry, looked up: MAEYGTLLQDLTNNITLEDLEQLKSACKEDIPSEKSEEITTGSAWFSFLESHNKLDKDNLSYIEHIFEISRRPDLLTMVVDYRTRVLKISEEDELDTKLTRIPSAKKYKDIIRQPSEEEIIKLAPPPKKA
UniProt P57721, whole entry, looked up: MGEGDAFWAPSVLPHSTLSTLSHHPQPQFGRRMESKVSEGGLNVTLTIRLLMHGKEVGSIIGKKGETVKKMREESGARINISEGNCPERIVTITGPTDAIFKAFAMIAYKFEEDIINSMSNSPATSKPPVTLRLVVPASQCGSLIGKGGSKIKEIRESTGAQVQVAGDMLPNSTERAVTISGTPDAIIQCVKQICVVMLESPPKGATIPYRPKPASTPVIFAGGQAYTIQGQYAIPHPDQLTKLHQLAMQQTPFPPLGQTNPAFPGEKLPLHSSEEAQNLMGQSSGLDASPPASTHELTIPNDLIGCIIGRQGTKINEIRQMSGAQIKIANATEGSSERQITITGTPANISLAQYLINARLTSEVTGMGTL
UniProt Q8WUM4: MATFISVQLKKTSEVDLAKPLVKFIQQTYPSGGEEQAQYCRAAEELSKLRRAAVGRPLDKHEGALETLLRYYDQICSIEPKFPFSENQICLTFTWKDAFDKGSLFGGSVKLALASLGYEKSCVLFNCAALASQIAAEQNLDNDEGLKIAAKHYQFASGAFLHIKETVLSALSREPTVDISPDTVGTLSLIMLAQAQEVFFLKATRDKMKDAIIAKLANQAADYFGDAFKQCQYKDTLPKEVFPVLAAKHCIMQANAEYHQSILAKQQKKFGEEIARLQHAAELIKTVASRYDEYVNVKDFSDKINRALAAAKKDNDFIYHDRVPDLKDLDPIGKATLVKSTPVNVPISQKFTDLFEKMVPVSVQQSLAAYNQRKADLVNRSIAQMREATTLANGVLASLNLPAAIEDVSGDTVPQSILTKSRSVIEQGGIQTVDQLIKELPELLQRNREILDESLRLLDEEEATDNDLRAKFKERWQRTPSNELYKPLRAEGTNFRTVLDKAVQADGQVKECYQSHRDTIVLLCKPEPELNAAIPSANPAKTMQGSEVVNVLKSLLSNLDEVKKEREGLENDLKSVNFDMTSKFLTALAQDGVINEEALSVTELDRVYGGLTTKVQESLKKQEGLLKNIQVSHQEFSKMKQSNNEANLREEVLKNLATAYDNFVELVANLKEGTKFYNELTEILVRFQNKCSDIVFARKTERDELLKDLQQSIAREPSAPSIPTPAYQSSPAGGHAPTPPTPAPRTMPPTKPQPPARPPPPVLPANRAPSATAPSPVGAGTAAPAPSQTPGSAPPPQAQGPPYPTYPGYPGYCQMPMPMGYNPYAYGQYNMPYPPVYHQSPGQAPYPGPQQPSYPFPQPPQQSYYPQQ
UniProt Q99447: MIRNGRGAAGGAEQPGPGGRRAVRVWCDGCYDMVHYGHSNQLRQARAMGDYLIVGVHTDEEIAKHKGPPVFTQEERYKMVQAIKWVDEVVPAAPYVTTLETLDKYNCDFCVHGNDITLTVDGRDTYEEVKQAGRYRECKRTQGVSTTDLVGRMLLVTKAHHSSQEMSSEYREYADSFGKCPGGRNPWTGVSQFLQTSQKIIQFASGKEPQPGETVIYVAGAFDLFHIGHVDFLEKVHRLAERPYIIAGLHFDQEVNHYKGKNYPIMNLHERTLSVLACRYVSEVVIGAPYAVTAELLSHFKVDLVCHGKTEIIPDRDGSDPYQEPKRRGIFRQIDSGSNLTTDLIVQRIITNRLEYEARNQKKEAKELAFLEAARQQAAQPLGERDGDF
UniProt Q9BUL8: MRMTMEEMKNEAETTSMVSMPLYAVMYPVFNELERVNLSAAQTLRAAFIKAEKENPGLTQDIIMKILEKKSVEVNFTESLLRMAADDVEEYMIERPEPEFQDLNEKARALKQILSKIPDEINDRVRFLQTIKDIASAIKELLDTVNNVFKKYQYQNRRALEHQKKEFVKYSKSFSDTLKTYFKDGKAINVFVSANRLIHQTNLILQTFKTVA
UniProt Q9NUG6, whole entry, looked up: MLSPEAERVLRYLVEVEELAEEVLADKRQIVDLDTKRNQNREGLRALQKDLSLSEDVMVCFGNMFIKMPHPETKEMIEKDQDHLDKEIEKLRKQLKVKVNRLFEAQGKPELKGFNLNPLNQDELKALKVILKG

This is one part of the list.

Compound in one assay: Cc1cc(Nc2cc(N3CCN(C)CC3)nc(Sc3ccc(NC(=O)C4CC4)cc3)n2)n[nH]1 [tozasertib]
Description: log2 fold change, soluble protein after heating vs DMSO (PISA); higher = thermal stabilisation; K562 lysate, 10 uM; active = over 0.2 and 3.5 SD of the protein, either way, in both replicates (recomputed). In outline: (§1)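 K562 pellets were dounce-homogenised in PBS pH 7.4 containing 1 mM MgCl2, and the crude extract, at 1 mg/mL protein, was exposed to 10 μM compound for 30 min. Aliquots were heated for 3 min across 48°C-58°C, pooled, brought to 0.5% NP-40 at 4°C and spun at 21,000xg for 90 min, with the supernatant taken as soluble protein. TMTpro 16plex LC-MS/MS with equalised channel sums quantified that protein. Values are log-two fold changes in thermal stability relative to solvent controls, taken from duplicates.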
Regarding PFN1 (UniProt P07737), the log2 fold change is inactive: -0.004.
On the same count and under the same terms, the same measure for PDCD5 (UniProt O14737): inactive: 0.042; for PAXBP1 (UniProt Q9Y5B6): inactive: 0.012.
On the same count and under the same terms, the same measure for PARP14 (UniProt Q460N5): inactive: -0.013.
On the same count and under the same terms, the same measure for PCBD1 (UniProt P61457): inactive: 0.022; for PFDN5 (UniProt Q99471): inactive: 0.034.
Consider PCBP2 isoform 3 (UniProt Q15366), for which the log2 fold change is inactive: 0.014.
For the target PDCD4 (UniProt Q53EL6), the log2 fold change was inactive: -0.002.
For PELO (UniProt Q9BRX2), the log2 fold change is inactive: 0.022.
On to PEA15 isoform 2 (UniProt Q15121), for which the log2 fold change is inactive: 0.047.

Compound in another assay: Cc1ccc(-n2nc(C(C)(C)C)cc2NC(=O)Nc2ccc(OCCN3CCOCC3)c3ccccc23)cc1 [doramapimod]
Described as above. In outline:
as §1
Take PDCL3 (UniProt Q9H2J4): the log2 fold change is inactive: 0.
Still for that read-out and setting: under PATL1 (UniProt Q86TB9) stands inactive: -0.035.
Still for that read-out and setting: under PDIA3 (UniProt H7BZJ3) stands inactive: 0.005; under PARN (UniProt O95453), inactive: -0.004; under PEX5 isoform 4 (UniProt P50542), inactive: -0.024.
Same read-out and setting: the same measure for PFKM isoform 3 (UniProt P08237): inactive: 0.
On to PCTP (UniProt Q9UKL6), for which the log2 fold change is inactive: -0.033.
On the same count and under the same terms, under PCBP3 (UniProt P57721) stands inactive: 0.014.
For the target PDCD6IP (UniProt Q8WUM4), the log2 fold change is inactive: 0.034.
The same measure, in the same setting: the same measure for PDCL (UniProt Q13371): inactive: -0.002.
On the same count and under the same terms, the same measure for PFDN4 (UniProt Q9NQP4): inactive: 0.039; for PCBP2 (UniProt H3BRU6): inactive: -0.119; for PDCD6IP isoform 2 (UniProt Q8WUM4): inactive: -0.008.
On the same count and under the same terms, under PDIA4 (UniProt P13667) stands inactive: -0.057; under PDE12 (UniProt Q6L8Q7), inactive: -0.037; under PCYT2 isoform 3 (UniProt Q99447), inactive: 0.031.
As for PDE2A (UniProt O00408), the log2 fold change was inactive: -0.057.
Same read-out and setting: the same measure for PCBP2 isoform 8 (UniProt Q15366): inactive: -0.092.
The same measure, in the same setting: the same measure for PFDN6 (UniProt O15212): inactive: 0.017; for PFDN2 (UniProt Q9UHV9): inactive: 0.005; for PDCD10 (UniProt Q9BUL8): inactive: -0.013.
Still for that read-out and setting: the same measure for PAXIP1 (UniProt Q6ZW49): inactive: 0.038; for PDRG1 (UniProt Q9NUG6): inactive: 0.03.
Consider PFN1 (UniProt P07737), for which the log2 fold change is inactive: 0.007.
In the case of PDCD5 (UniProt O14737), the log2 fold change was inactive: -0.014.
On the same count and under the same terms, under PAXBP1 (UniProt Q9Y5B6) stands inactive: 0.038; under PARP14 (UniProt Q460N5), inactive: -0.013; under PCBD1 (UniProt P61457), inactive: 0.078.
The same measure, in the same setting: the same measure for PFDN5 (UniProt Q99471): inactive: -0.005; for PCBP2 isoform 3 (UniProt Q15366): inactive: 0.012; for PDCD4 (UniProt Q53EL6): inactive: 0.011.
Still for that read-out and setting: the same measure for PELO (UniProt Q9BRX2): inactive: 0.019; for PEA15 isoform 2 (UniProt Q15121): inactive: 0.05.

Compound in another assay: Cc1ccc(NC(=O)c2ccc(CN3CC[C@H](N(C)C)C3)c(C(F)(F)F)c2)cc1Nc1nccc(-c2cncnc2)n1 [bafetinib]
Described as above. Summed up:
as §1
In the case of PDCL3 (UniProt Q9H2J4), the log2 fold change is inactive: 0.022.
Still for that read-out and setting: under PATL1 (UniProt Q86TB9) stands inactive: -0.02; under PDIA3 (UniProt H7BZJ3), inactive: -0.05.
On the same count and under the same terms, the same measure for PARN (UniProt O95453): inactive: -0.056; for PEX5 isoform 4 (UniProt P50542): inactive: -0.098.
The same measure, in the same setting: the same measure for PFKM isoform 3 (UniProt P08237): inactive: -0.018; for PCTP (UniProt Q9UKL6): inactive: -0.018.
In the case of PCBP3 (UniProt P57721), the log2 fold change was inactive: -0.03.
Take PDCD6IP (UniProt Q8WUM4): the log2 fold change was inactive: -0.053.
Still for that read-out and setting: under PDCL (UniProt Q13371) stands inactive: -0.039; under PFDN4 (UniProt Q9NQP4), inactive: 0.032; under PCBP2 (UniProt H3BRU6), inactive: 0.079.
The same measure, in the same setting: the same measure for PDCD6IP isoform 2 (UniProt Q8WUM4): inactive: -0.006; for PDIA4 (UniProt P13667): inactive: 0.014.
Same read-out and setting: under PDE12 (UniProt Q6L8Q7) stands inactive: -0.037; under PCYT2 isoform 3 (UniProt Q99447), inactive: -0.046.
As for PDE2A (UniProt O00408), the log2 fold change was inactive: 0.051.
Still for that read-out and setting: under PCBP2 isoform 8 (UniProt Q15366) stands inactive: 0.082.
As for PFDN6 (UniProt O15212), the log2 fold change is inactive: 0.013.
As for PFDN2 (UniProt Q9UHV9), the log2 fold change is inactive: -0.064.
Consider PDCD10 (UniProt Q9BUL8), for which the log2 fold change was inactive: -0.033.
On the same count and under the same terms, under PAXIP1 (UniProt Q6ZW49) stands inactive: 0.021; under PDRG1 (UniProt Q9NUG6), inactive: 0.019.
On the same count and under the same terms, the same measure for PFN1 (UniProt P07737): inactive: 0; for PDCD5 (UniProt O14737): inactive: -0.009.
With PAXBP1 (UniProt Q9Y5B6), the log2 fold change was inactive: -0.024.
On the same count and under the same terms, the same measure for PARP14 (UniProt Q460N5): inactive: -0.081; for PCBD1 (UniProt P61457): inactive: -0.041; for PFDN5 (UniProt Q99471): inactive: 0.043.
The same measure, in the same setting: under PCBP2 isoform 3 (UniProt Q15366) stands inactive: 0.002; under PDCD4 (UniProt Q53EL6), inactive: -0.038.
Same read-out and setting: under PELO (UniProt Q9BRX2) stands inactive: -0.054; under PEA15 isoform 2 (UniProt Q15121), inactive: 0.015.
